Test results taken from patent publication US7582437 (JAPAN SCIENCE AND TECHNOLOGY AGENCY, dated 2009).
Results are given in words; binding and its absence hold for the method and conditions named. In cells and extracts the contact can be indirect. Some entries that bind do so weakly or less than the wild type.

By UniProt entry, the sequences of proteins in these tests, tags left out. Where a name states a change or a piece, a line headed by the entry shows the natural chain unless it says otherwise. Residues count along the entry.
UniProt O15455, residues 24-904: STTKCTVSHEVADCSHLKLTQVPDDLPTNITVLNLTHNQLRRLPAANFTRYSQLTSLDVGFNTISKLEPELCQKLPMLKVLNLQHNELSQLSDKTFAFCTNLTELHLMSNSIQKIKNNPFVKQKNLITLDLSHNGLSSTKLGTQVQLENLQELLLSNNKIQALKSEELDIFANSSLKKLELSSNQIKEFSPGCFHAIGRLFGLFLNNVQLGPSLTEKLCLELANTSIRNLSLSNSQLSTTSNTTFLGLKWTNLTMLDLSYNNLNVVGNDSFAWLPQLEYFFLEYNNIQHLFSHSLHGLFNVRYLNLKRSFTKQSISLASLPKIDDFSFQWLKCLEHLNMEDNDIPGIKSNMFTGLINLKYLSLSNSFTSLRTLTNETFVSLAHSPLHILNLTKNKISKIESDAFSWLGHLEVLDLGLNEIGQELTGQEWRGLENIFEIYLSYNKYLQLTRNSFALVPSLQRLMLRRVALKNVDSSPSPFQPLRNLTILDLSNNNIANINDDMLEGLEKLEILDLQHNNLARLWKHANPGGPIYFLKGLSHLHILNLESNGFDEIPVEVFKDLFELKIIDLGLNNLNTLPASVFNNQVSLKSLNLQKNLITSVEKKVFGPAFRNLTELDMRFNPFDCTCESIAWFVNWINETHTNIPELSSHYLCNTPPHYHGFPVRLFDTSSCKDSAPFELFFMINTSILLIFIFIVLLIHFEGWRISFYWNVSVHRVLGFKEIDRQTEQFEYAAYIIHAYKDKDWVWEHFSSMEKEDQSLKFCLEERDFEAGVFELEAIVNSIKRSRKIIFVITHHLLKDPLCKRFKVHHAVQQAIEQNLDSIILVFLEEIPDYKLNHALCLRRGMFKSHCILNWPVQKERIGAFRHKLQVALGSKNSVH
UniProt Q8IUC6: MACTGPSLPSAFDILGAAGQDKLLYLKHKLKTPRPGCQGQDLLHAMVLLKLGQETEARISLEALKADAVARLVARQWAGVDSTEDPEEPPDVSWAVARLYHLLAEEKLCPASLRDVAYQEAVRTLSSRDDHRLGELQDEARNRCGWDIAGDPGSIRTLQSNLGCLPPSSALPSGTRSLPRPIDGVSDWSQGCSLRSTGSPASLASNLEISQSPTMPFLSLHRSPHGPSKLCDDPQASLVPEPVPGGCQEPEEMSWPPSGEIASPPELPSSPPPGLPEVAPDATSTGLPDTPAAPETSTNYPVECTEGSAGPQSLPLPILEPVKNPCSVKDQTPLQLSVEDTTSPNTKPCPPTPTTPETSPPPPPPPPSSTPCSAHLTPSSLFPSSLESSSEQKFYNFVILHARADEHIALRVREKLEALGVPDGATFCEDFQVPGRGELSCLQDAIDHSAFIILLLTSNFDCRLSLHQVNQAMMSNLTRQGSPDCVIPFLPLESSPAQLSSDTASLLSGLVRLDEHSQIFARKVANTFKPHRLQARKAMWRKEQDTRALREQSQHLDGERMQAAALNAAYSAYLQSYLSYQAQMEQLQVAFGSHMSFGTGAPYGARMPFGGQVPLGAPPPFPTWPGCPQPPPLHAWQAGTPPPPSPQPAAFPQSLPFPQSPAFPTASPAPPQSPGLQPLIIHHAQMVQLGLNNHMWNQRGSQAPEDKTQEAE

How the values were obtained:
[1] = target: flag-tagged human TLR3 (human) (UniProt O15455); assay: co-immunoprecipitation from HEK293 lysates with anti-Flag antibody, anti-HA blot
[2] = target: flag-tagged human TLR3 (human) (UniProt O15455); assay: co-immunoprecipitation in HEK293 cells
[3] = target: flag-tagged human TLR3 (human) (UniProt O15455); assay: co-immunoprecipitation with monoclonal antibody TLR3.7 against human TLR3
[4] = target: flag-tagged human TLR3 (human) (UniProt O15455); assay: co-immunoprecipitation and yeast two-hybrid, conclusion
[5] = target: flag-tagged human TLR3 (human) (UniProt O15455); assay: co-immunoprecipitation from HEK293 lysates
[6] = target: flag-tagged human TLR3 (human) (UniProt O15455); assay: co-immunoprecipitation with anti-Flag M2, anti-HA blot (FIG. 10, middle panel, lane 2)
[7] = target: flag-tagged human TLR3 (human) (UniProt O15455); assay: co-immunoprecipitation from HEK293 lysates with anti-Flag M2, anti-HA blot

Measured: binding

HA-tagged human TICAM-1 (from UniProt Q8IUC6 1-712)
binds: all assays above
